# Measured values as given in PubChem BioAssay AID328 (DTP/NCI, 2004).
# The list is a part of this screen's results and no random one: it is rich in T/C values a quarter to a half above the control, in often repeated tests (any T/C) and in doses without a T/C. Further doses and runs are listed elsewhere. T/C: endpoint of the treated group in % of that of the vehicle group. Some doses have a count of surviving animals in place of a T/C: the source holds a T/C of zero for them, seemingly a mark for toxic or unscored doses. Some doses without a T/C left all or most animals alive at the check, yet need not have been tolerated: survival well below the control is almost never listed, so the zero probably covers shortened survival too. Survivors were counted at the toxicity check, usually on the fifth day, unless a day is given; later deaths do not show. Schedule codes are those of the source, taken here to give the interval after Q, in days (D) or hours (H), and the number of doses after X. Some entries were tested several times; the results are listed from low to high. For survival time, the PubChem record calls one and a half times the control and up active, and a quarter to a half above the control has no call in these data; cut-offs in other NCI protocols can differ. Some T/C values carry the count of animals alive at the toxicity check (mostly the fifth day); where none is given, no animal had died by that day.
# Tested on: BDF1 mice, P388 leukemia ip, median survival T/C
# Test: NCI In Vivo Anticancer Drug Screen. Data for tumor model P388 Leukemia (intraperitoneal) in B6D2F1 (BDF1) mice
# Conditions: T/C endpoint: median survival time, higher T/C = longer survival
# Outline: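 Read-out is survival of treated animals expressed relative to the vehicle group, as a T/C ratio.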
# [1] = dose: 200.0 mg/kg/injection, schedule: Q01DX009 (ip), vehicle: saline with Tween-80
# [2] = dose: 20.0 mg/kg/injection, schedule: Q01DX009 (ip), vehicle: saline
# [3] = dose: 200.0 mg/kg/injection, schedule: Q01DX009 (ip), vehicle: saline
# [4] = dose: 400.0 mg/kg/injection, schedule: Q04DX003 (ip), vehicle: saline with Tween-80
# [5] = dose: 50.0 mg/kg/injection, schedule: Q01DX009 (ip), vehicle: water
# [6] = dose: 100.0 mg/kg/injection, schedule: Q01DX009 (ip), vehicle: water
# [7] = dose: 400.0 mg/kg/injection, schedule: Q01DX009 (ip), vehicle: saline with Tween-80
# [8] = dose: 100.0 mg/kg/injection, schedule: Q01DX009 (ip), vehicle: saline with Tween-80
# [9] = dose: 200.0 mg/kg/injection, schedule: Q04DX003 (ip), vehicle: saline with Tween-80
# [10] = dose: 100.0 mg/kg/injection, schedule: Q01DX009 (ip), vehicle: saline
# [11] = dose: 200.0 mg/kg/injection, schedule: Q04DX003 (ip), vehicle: saline
# [12] = dose: 100.0 mg/kg/injection, schedule: Q04DX003 (ip), vehicle: saline
# [13] = dose: 400.0 mg/kg/injection, schedule: Q04DX003 (ip), vehicle: saline
# [14] = dose: 50.0 mg/kg/injection, schedule: Q01DX009 (ip), vehicle: saline
compound,measurement,setting,value
O=C(O)C(CCO)C(=O)C(F)(F)F (stereo not given),survivor count,"dose: 200.0 mg/kg/injection, schedule: Q01DX009 (ip), vehicle: other",2 of 6
same,survivor count,"dose: 400.0 mg/kg/injection, schedule: Q01DX009 (ip), vehicle: other",0 of 6
Nc1ncc([N+](=O)[O-])cn1,survivor count,"dose: 400.0 mg/kg/injection, schedule: Q01DX009 (ip), vehicle: Klucel (hydroxypropylcellulose) (HPC)",2 of 6
COC1=C(N)C(=O)c2ncccc2C1=O,T/C,"dose: 16.0 mg/kg/injection, schedule: Q01DX010 (ip), vehicle: acetone",127 % of control
same,survivor count,"dose: 32.0 mg/kg/injection, schedule: Q01DX010 (ip), vehicle: acetone",0 of 6
COc1cc(OC)c(C(=O)CCc2ccccc2)c(O)c1Cc1ccccc1O,T/C,"dose: 1.0 mg/kg/injection, schedule: Q01DX009 (ip), vehicle: saline",132 % of control
same,survivor count,"dose: 9.0 mg/kg/injection, schedule: Q01DX009 (ip), vehicle: saline with Tween-80",4 of 4
CCOC(=O)C(Cc1ccc(N(CCCl)CCCl)cc1)NC(=O)C(Cc1ccccc1)NC=O (stereo not given),T/C,"dose: 25.0 mg/kg/injection, schedule: Q04DX003 (ip), vehicle: saline with Tween-80",140 % of control
same,survivor count,[1],6 of 6
C[C@H](N)C(=O)N[C@@H]1[C@H]2C(=C(O)C[C@@H](O)[C@@H]2O)C(=O)O[C@@H]1C,T/C,"dose: 200.0 mg/kg/injection, schedule: Q01DX010 (ip), vehicle: saline",137 % of control
same,T/C,"dose: 1064.0 mg/kg/injection, schedule: Q04DX003 (ip), vehicle: saline",146 % of control [7 of 8 alive]
O=C1C(Cl)=C(N2CC2)C(=O)C(Cl)=C1N1CC1,T/C,"dose: 1.25 mg/kg/injection, schedule: Q01DX009 (ip), vehicle: Klucel (hydroxypropylcellulose) (HPC)",125 % of control
same,survivor count,"dose: 20.0 mg/kg/injection, schedule: Q01DX009 (ip), vehicle: Klucel (hydroxypropylcellulose) (HPC)",1 of 6
same,survivor count,[2],4 of 6 and 6 of 6
N=c1ccn2c(n1)OC1C(OP(=O)(O)O)C(CO)OC12 (stereo not given),T/C,"dose: 78.0 mg/kg/injection, schedule: Q04DX003 (ip), vehicle: saline",136 % of control
C[N+](C)(C)Cc1ccccc1C[N+](C)(C)C,survivor count,[3],3 of 6
CN=Cc1ccc([N+](=O)[O-])cc1,survivor count,"dose: 400.0 mg/kg/injection, schedule: Q01DX001 (ip), vehicle: Klucel (hydroxypropylcellulose) (HPC)",6 of 6
CC(=O)N1C(=O)NC(=O)C1(C)c1ccc(Cl)s1 (stereo not given),survivor count,[4],6 of 6
C[n+]1cc2ccccc2c2ccccc21,T/C,"dose: 25.0 mg/kg/injection, schedule: Q01DX009 (ip), vehicle: water",126 % of control
same,survivor count,"dose: 40.0 mg/kg/injection, schedule: Q01DX009 (ip), vehicle: water",3 of 6
same,survivor count,[5],1 of 6 and 3 of 6
same,T/C,"dose: 50.0 mg/kg/injection, schedule: Q04DX003 (ip), vehicle: water",128 % of control
same,survivor count,[6],0 of 6
same,survivor count,"dose: 100.0 mg/kg/injection, schedule: Q04DX003 (ip), vehicle: water",0 of 6
C[n+]1c(-c2cc(N)cc(C(F)(F)F)c2)c2cc(N)ccc2c2ccc(N)cc21,survivor count,[5],5 of 5
same,survivor count,[6],0 of 5
CN(C)C(=O)c1cccc(NC(=O)Oc2ccccc2)c1,survivor count,[7],6 of 6
Clc1ccc(-c2cc(=[N+]3CCCCC3)ss2)cc1,survivor count,"dose: 6.25 mg/kg/injection, schedule: Q04DX003 (ip), vehicle: saline with Tween-80",6 of 6
same,survivor count,"dose: 12.5 mg/kg/injection, schedule: Q01DX009 (ip), vehicle: saline with Tween-80",3 of 6
same,survivor count,[8],6 of 6
same,survivor count,[1],0 of 6
same,survivor count,[9],4 of 6
same,survivor count,[4],0 of 6
C/C=C/c1ccc2ccc[n+](C)c2c1O,T/C,"dose: 100.0 mg/kg/injection, schedule: Q04DX003 (ip), vehicle: saline sonified",125 % of control
CC(C)N1CCOCC1,survivor count,"dose: 150.0 mg/kg/injection, schedule: Q01DX009 (ip), vehicle: saline",0 of 6
same,survivor count,"dose: 225.0 mg/kg/injection, schedule: Q01DX009 (ip), vehicle: saline",0 of 6
same,survivor count,"dose: 335.0 mg/kg/injection, schedule: Q01DX009 (ip), vehicle: saline",0 of 6
OC(c1ccc(Cl)cc1)(c1ccc(Cl)cc1)C(F)(F)F,survivor count,"dose: 200.0 mg/kg/injection, schedule: Q01DX009 (sc), vehicle: olive oil, sesame oil, peanut oil",6 of 6
same,survivor count,"dose: 400.0 mg/kg/injection, schedule: Q01DX009 (sc), vehicle: olive oil, sesame oil, peanut oil",6 of 6
COC(C/C=C\C=C\CC/C=C/CC(C)/C=C/C(=C\C(=O)O)CC(=O)O)/C(C)=C\C=C(/C)C(=O)O (stereo not given),T/C,"dose: 4.0 mg/kg/injection, schedule: Q04DX003 (ip), vehicle: saline",125 % of control
C[C@@]1(O)CCCC[C@H]1O,survivor count,"dose: 400.0 mg/kg/injection, schedule: Q01DX009 (ip), vehicle: saline",3 of 6
CCOC(=O)c1ccccc1OP(=O)(N(C)C)N(C)C,T/C,[8],142 % of control
COc1ccc(C[n+]2cc([O-])on2)cc1,survivor count,[4],2 of 6
Cn1c(=O)c2ncnnc2n(C)c1=O,survivor count,"dose: 25.0 mg/kg/injection, schedule: Q01DX009 (ip), vehicle: Klucel (hydroxypropylcellulose) (HPC)",0 of 6
Cc1ccc2c(c1)CCCN2C,survivor count,[10],5 of 6
same,survivor count,[11],5 of 6
CCC1C2CC3C4N(C)c5ccc(Br)cc5C45CC(C2C5O)[N+]3(CC(O)CN2CCCCC2)C1O (stereo not given),survivor count,[10],2 of 6
same,survivor count,[3],0 of 6
Cc1ccc(C[N+](C)(C)C)c2ccccc12,survivor count,[12],1 of 6
same,survivor count,[11],2 of 6
same,survivor count,[13],0 of 6
COc1cc2cc3c4ccc(OC)c(OC)c4cc[n+]3c(C)c2cc1OC (tested in a mixture with another compound),T/C,"dose: 10.0 mg/kg/injection, schedule: Q01DX009 (ip), vehicle: saline",149 % of control
same,T/C,[2],141 % of control
same,survivor count,[3],4 of 6
same,survivor count,"dose: 240.0 mg/kg/injection, schedule: Q01DX009 (ip), vehicle: saline",6 of 6
CC(C(=O)c1cccs1)C(O)(C(F)(F)F)C(F)(F)F (stereo not given),survivor count,"dose: 400.0 mg/kg/injection, schedule: Q04DX003 (ip), vehicle: Klucel (hydroxypropylcellulose) (HPC)",6 of 6
O=C(NCCCN1CC1)C(=O)NCCCN1CC1,survivor count,"dose: 25.0 mg/kg/injection, schedule: Q01DX009 (ip), vehicle: saline",4 of 6
same,survivor count,[14],0 of 6
same,survivor count,[10],0 of 6
O=C(Nc1ccc(C2=NCCN2)cc1)Nc1cccc(NC(=O)Nc2cccc(C3=NCCN3)c2)c1,survivor count,"dose: 100.0 mg/kg/injection, schedule: Q04DX003 (ip), vehicle: saline with Tween-80",5 of 6
CC(C)(N)CCC(C)(C)NCCCN,survivor count,"dose: 300.0 mg/kg/injection, schedule: Q01DX009 (ip), vehicle: water",6 of 6
O=P(N1CC=CCC1)(N1CC1)N1CC1,survivor count,[14],5 of 6
same,survivor count,[12],4 of 6
same,survivor count,[11],3 of 6
same,survivor count,[13],0 of 6
CCC1(O)CC(OC2CC(N(C)C)C(OC3CC(O)C(OC4CCC(=O)C(C)O4)C(C)O3)C(C)O2)c2c(cc3c(c2O)C(=O)c2c(O)ccc(O)c2C3=O)C1C(=O)OC (stereo not given),T/C,"dose: 1.73 mg/kg/injection, schedule: Q04DX003 (ip), vehicle: water",149 % of control
same,survivor count,"dose: 8.0 mg/kg/injection, schedule: Q04DX003 (ip), vehicle: water",8 of 8
O=C(O)c1cc(Br)ccc1OCc1cccc(Cl)c1,survivor count,[9],0 of 6
same,survivor count,[4],0 of 6
CCNNC(=O)[C@@H]1[C@H](c2cc(OC)c(OC)c(OC)c2)c2cc3c(cc2[C@H](O)[C@H]1CO)OCO3,survivor count,[8],4 of 6
same,survivor count,[1],2 of 6
same,survivor count,[7],2 of 6
same,survivor count,[4],4 of 6
CCC(C)SC1=NC=NC2=NC=NC21 (stereo not given),survivor count,[1],3 of 6
same,survivor count,[4],1 of 6
